Laboratory results published in US20110300148A1.
Results are given in words; binding and its absence hold for the method and conditions named. A result given as binding can be weak or reduced; the word gives no strength.

Assays:
[1] = molecular target: Recombinant IL4Rα (Homo sapiens (Human)); test: SPR (Biacore); by the legend, Ph2 on the chip and IL4rα in solution; KD calculated but not given
[2] = molecular target: Recombinant IL4Rα (Homo sapiens (Human)); test: SPR (Biacore); by the legend, Ph3 on the chip and IL4rα in solution; KD calculated but not given

Binder | binding [1] | binding [2]
ARFLKRLDRNLWGG [Ph2 (SEQ ID NO:3)] | binds | –
AQFHRHKQLIRFLKRA [Ph3 (SEQ ID NO:1)] | – | binds
